Laboratory results reported in US20240092846A1 (priority 2022, published 2024).
Strings that start with PEPTIDE1 are HELM notation: dots part the residues, brackets hold end groups and non-standard residues.

experiment: general procedure: Fmoc solid-phase peptide synthesis; Rink-amide resin; HBTU/DIEA; settings: cyclisation step, on linear thioester

Substance	cyclisation yield
PEPTIDE1{G.G.V.C.P.K.I.L.Q.R.C.R.R.D.S.D.C.P.G.A.C.I.C.R.G.N.G.Y.C.G.S.G.S.G.G.R.L.C.Y.C.R.R.R.F.C.V.C.V.G.R.R}$PEPTIDE1,PEPTIDE1,1:R1-51:R2|PEPTIDE1,PEPTIDE1,4:R3-21:R3|PEPTIDE1,PEPTIDE1,11:R3-23:R3|PEPTIDE1,PEPTIDE1,17:R3-29:R3|PEPTIDE1,PEPTIDE1,38:R3-47:R3|PEPTIDE1,PEPTIDE1,40:R3-45:R3$$$V2.0	40%
cyclo [GGVCPKILQRCRRDSDCPGACICRGNGYCGSGSGGCLCYCRRRFCVCVCRR]	16%
cyclo [GGVCPKILQRCRRDSDCPGACICRGNGYCGSGSGRLCYCRRRFCVCVGR] (cyclic)	20%
cyclo [GGVCPKILQRCRRDSDCPGACICRGNGYCGSGSGGGRLCYCRRRFCVCVCGRRG]	18%
